Assay results as given in patent EP0987023A1, “Transition metal complexes of non steroidal anti-inflammatory drugs” (PANACEA BIOTEC LIMITED, priority 1998, dated 2000).

Tests used:
rats = experiment: Ulcerogenic effect evaluated by ulcer index in rats; conditions: n=3, 4 mg/kg p.o.
[1] = collected values of NSAIDs; cited from earlier work
[2] = test system: Cyclooxygenase 2/Cyclooxygenase 1; conditions: IC50 (µg/ml) of COX2 divided by IC50 for COX1; values below 1 indicate selectivity for COX2; from Drugs of Today Vol. 32 Suppl. D 1996 p. 5; cited from earlier work

## COc1ccc2cc([C@H](C)C(=O)O)ccc2c1 [Naproxen, (+) -2-(6-Methoxy-2-haphthyl) propionic acid]
rats
  Ulcer Index: 4.66±1.01
[1]
  LD50: 395 mg/kg
  Therapeutic Index: 190
[2]
  Cyclooxygenase 2/Cyclooxygenase 1 ratio: 0.6
